PubChem BioAssay AID602196 – INSERM – 2012
Shown is one part, drawn at random, of about 23,000 reagents. 455 of all reagents (2%) count as active. 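Active includes both protection and sensitisation; some change values fall well beyond the stated -50 to +50 range.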 Further read-outs or replicates are left out here. Reagent sequences are not shown. Not given: the amount of reagent.

Test: 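Knock-downs that protect lung cancer cells from cisplatin or sensitise them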
Cells: human A549 lung cancer cells
Reagent: siRNA pair against human genes
Timing: 48 h transfection before cisplatin; time from cisplatin to read-out not stated
Challenge: cisplatin at a dose killing half of control-siRNA cells; exact dose and duration not given
Detection: 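Cisplatin cell death as a shift from the 50% death seen with control siRNA; siRNAs toxic or growth-blocking alone scored 0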
Reading the numbers: two-siRNA summed score (-2 to +2): higher = both siRNAs protect from cisplatin killing; -2 means both sensitise; mean protection from cisplatin (shift in death): higher = protection from cisplatin killing
Call rule: 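siRNAs harmful alone (LDH or WST-1) get 0; others get +1 for less and -1 for more cisplatin killing; genes are active when the two siRNAs give the same sign, summing to ±2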
Meaning of the calls: active = both siRNAs shift cisplatin killing the same way; inactive = no consistent shift, or siRNA harmful alone

IL2RG [SID131518015]: two-siRNA summed score (-2 to +2) = 0; mean protection from cisplatin (shift in death) (%) = 16; Outcome = inactive
OR51G2 [SID131509676]: two-siRNA summed score (-2 to +2) = 0; mean protection from cisplatin (shift in death) (%) = 2.4; Outcome = inactive
LOC197317 [SID131517881]: two-siRNA summed score (-2 to +2) = 0; mean protection from cisplatin (shift in death) (%) = 15.2; Outcome = inactive
LOC388453 [SID131518887]: two-siRNA summed score (-2 to +2) = 0; mean protection from cisplatin (shift in death) (%) = 37.9; Outcome = inactive
LOC387824 [SID131519427]: two-siRNA summed score (-2 to +2) = 1; mean protection from cisplatin (shift in death) (%) = 5.5; Outcome = inactive
LOC442146 [SID131511174]: two-siRNA summed score (-2 to +2) = 0; mean protection from cisplatin (shift in death) (%) = 4.1; Outcome = inactive
NDUFV1-DT [SID131513687]: two-siRNA summed score (-2 to +2) = 0; mean protection from cisplatin (shift in death) (%) = 6.9; Outcome = inactive

Quoted from above (2 entries):
LOC442146 [SID131511174]: two-siRNA summed score (-2 to +2) = 0; mean protection from cisplatin (shift in death) (%) = 4.1; Outcome = inactive
NDUFV1-DT [SID131513687]: two-siRNA summed score (-2 to +2) = 0; mean protection from cisplatin (shift in death) (%) = 6.9; Outcome = inactive

The list goes on:
ZNF496 [SID131507894]: two-siRNA summed score (-2 to +2) = 0; mean protection from cisplatin (shift in death) (%) = 0.4; Outcome = inactive
SUV39H1 [SID131509677]: two-siRNA summed score (-2 to +2) = 0; mean protection from cisplatin (shift in death) (%) = 2.4; Outcome = inactive
FYB1 [SID131511620]: two-siRNA summed score (-2 to +2) = 0; mean protection from cisplatin (shift in death) (%) = 4.5; Outcome = inactive
LOC400614 [SID131507084]: two-siRNA summed score (-2 to +2) = 0; mean protection from cisplatin (shift in death) (%) = -0.6; Outcome = inactive
ZNF30 [SID131507531]: two-siRNA summed score (-2 to +2) = 0; mean protection from cisplatin (shift in death) (%) = 0; Outcome = inactive
AVIL [SID131515851]: two-siRNA summed score (-2 to +2) = 0; mean protection from cisplatin (shift in death) (%) = 9.8; Outcome = inactive
KIAA0586 [SID131519091]: two-siRNA summed score (-2 to +2) = 1; mean protection from cisplatin (shift in death) (%) = 2.2; Outcome = inactive
LOC389137 [SID131514544]: two-siRNA summed score (-2 to +2) = 0; mean protection from cisplatin (shift in death) (%) = 7.9; Outcome = inactive
LOC440467 [SID131517972]: two-siRNA summed score (-2 to +2) = 0; mean protection from cisplatin (shift in death) (%) = 15.7; Outcome = inactive
SETD6 [SID131503906]: two-siRNA summed score (-2 to +2) = 0; mean protection from cisplatin (shift in death) (%) = -7.2; Outcome = inactive
INTS2 [SID131506539]: two-siRNA summed score (-2 to +2) = 0; mean protection from cisplatin (shift in death) (%) = -1.4; Outcome = inactive
GPR15 [SID131512910]: two-siRNA summed score (-2 to +2) = 0; mean protection from cisplatin (shift in death) (%) = 6; Outcome = inactive
SCML1 [SID131517839]: two-siRNA summed score (-2 to +2) = 0; mean protection from cisplatin (shift in death) (%) = 15.1; Outcome = inactive
ATP5PF [SID131521636]: two-siRNA summed score (-2 to +2) = 1; mean protection from cisplatin (shift in death) (%) = 14.3; Outcome = inactive
